Experimental data as given in the supplement of paper PMC10849652.
The other results are listed elsewhere or left out.

By UniProt entry, the sequences of proteins in these tests, tags left out. Where a name states a change or a piece, a line headed by the entry shows the natural chain unless it says otherwise.
UniProt P36952: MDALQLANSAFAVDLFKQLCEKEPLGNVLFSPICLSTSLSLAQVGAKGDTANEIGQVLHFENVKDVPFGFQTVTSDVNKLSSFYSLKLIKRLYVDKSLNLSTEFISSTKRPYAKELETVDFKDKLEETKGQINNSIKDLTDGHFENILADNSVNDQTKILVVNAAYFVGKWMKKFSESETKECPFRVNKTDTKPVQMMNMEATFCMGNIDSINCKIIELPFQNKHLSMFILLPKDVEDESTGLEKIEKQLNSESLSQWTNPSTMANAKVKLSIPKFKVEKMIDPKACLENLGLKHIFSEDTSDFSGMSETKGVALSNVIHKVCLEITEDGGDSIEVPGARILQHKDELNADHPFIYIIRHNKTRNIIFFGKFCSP
UniProt Q9BX95: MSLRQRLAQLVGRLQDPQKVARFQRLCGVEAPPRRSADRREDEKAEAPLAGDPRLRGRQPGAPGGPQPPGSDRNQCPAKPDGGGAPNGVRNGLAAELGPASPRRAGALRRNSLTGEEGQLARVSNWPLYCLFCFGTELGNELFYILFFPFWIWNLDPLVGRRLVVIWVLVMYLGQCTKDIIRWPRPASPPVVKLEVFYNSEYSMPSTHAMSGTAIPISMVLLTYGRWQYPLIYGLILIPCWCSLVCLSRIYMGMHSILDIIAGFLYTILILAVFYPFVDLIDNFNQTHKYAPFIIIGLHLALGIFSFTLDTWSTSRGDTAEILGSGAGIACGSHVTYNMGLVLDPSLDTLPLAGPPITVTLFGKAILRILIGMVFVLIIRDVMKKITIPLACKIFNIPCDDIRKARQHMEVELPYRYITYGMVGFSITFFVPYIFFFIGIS
UniProt A1X283: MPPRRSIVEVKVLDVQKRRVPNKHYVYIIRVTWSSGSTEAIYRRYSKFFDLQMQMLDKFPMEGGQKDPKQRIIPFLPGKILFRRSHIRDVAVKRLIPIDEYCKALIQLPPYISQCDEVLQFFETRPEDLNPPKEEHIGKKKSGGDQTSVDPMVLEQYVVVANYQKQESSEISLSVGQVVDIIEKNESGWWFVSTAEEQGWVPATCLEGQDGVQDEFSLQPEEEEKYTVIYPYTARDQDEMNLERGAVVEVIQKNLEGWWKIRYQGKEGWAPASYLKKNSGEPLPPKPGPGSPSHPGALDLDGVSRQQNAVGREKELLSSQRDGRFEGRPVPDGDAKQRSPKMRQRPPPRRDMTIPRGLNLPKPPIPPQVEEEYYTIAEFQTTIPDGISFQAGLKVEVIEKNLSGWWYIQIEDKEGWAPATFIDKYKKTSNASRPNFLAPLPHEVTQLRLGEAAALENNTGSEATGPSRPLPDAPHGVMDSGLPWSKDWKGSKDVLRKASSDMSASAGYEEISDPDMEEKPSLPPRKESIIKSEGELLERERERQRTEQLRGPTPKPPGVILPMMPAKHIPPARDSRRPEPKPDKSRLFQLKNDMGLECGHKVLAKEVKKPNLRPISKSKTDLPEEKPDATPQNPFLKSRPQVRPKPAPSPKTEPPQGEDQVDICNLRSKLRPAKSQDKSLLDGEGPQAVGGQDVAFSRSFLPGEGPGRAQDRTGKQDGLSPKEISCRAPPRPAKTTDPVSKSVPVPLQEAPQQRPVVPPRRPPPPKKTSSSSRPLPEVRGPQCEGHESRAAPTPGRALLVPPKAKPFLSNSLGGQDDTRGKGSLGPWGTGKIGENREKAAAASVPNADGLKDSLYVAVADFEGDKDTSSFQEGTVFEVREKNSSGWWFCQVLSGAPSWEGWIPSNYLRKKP
UniProt Q9HAT2: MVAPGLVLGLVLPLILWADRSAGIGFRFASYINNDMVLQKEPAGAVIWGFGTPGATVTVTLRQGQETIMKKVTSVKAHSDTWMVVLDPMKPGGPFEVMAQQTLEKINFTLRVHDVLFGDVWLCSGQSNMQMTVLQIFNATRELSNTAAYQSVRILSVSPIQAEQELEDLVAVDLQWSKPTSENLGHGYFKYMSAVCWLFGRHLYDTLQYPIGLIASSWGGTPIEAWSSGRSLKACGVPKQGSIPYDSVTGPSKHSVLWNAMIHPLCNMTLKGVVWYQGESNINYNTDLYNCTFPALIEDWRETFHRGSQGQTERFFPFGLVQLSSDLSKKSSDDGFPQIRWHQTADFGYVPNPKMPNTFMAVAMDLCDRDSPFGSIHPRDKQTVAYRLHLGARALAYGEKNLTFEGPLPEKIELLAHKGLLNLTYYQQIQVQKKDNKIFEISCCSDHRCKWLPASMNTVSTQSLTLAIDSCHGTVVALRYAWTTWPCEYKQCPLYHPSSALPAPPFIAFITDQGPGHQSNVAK
UniProt O75563, whole entry, looked up: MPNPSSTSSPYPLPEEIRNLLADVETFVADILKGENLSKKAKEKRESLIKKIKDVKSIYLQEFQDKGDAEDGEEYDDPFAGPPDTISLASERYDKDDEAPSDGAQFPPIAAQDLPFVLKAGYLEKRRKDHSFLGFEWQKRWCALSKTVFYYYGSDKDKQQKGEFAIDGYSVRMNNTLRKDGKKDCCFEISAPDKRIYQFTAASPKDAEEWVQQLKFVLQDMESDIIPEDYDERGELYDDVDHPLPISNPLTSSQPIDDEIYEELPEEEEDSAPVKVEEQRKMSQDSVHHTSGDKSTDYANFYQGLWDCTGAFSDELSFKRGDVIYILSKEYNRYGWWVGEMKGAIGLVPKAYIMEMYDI
UniProt Q8IW75: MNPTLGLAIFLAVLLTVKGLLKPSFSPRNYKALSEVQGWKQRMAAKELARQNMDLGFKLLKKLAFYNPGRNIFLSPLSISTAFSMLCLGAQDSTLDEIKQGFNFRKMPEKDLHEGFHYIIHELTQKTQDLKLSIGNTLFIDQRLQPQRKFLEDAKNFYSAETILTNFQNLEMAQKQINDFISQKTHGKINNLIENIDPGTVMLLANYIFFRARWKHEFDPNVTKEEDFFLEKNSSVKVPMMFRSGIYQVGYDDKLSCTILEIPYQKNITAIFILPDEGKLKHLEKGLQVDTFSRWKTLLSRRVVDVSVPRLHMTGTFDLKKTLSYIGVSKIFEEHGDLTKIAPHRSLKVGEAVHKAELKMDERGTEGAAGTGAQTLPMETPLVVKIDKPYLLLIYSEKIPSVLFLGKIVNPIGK
UniProt Q02383: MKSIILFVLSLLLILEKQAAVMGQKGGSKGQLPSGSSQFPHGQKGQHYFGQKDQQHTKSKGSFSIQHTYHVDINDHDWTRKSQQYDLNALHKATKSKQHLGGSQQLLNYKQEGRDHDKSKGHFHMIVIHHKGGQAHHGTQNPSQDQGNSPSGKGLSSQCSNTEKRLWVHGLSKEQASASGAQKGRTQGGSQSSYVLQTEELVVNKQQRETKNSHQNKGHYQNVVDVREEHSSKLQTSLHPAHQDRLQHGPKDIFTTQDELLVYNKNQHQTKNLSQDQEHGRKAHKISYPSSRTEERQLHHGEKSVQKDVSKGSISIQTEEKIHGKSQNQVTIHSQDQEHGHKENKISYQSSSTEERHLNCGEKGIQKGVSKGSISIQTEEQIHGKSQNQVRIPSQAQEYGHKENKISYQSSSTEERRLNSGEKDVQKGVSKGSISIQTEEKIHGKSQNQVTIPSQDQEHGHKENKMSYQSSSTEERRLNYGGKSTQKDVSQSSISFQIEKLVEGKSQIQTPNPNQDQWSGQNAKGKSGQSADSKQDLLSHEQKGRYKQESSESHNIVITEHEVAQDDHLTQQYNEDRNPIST
UniProt Q9NP50: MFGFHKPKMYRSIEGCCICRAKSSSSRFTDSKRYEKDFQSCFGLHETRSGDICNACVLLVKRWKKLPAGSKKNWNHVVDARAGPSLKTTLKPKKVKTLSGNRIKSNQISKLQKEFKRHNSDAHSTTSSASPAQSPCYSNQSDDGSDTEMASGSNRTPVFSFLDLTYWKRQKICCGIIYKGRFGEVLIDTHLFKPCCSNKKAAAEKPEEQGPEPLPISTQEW
UniProt Q9NZV5, whole entry, looked up: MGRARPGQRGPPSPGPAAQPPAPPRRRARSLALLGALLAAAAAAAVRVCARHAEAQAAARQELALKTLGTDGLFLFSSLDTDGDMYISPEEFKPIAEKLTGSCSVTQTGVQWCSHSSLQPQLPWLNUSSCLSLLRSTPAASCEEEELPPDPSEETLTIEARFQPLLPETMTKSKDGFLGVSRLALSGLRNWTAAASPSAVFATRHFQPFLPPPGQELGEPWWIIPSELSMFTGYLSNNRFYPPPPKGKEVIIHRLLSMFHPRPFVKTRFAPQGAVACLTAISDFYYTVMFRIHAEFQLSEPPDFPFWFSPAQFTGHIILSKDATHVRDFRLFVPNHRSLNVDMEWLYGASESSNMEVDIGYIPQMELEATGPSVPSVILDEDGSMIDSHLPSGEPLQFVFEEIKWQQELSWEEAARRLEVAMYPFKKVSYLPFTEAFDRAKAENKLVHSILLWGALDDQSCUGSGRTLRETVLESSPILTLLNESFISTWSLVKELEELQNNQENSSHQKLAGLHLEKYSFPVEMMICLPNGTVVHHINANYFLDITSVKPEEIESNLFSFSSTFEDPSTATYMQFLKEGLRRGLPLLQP
UniProt O14796: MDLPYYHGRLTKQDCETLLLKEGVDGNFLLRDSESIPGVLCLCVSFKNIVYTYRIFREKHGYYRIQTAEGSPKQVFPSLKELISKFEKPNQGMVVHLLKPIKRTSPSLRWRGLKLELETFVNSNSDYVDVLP

Key:
Experiment in all cases: log2 fold change, soluble protein after heating vs DMSO (PISA); higher = thermal stabilisation; K562 cells, 10 uM, 30 min; active = over 0.2 and 3.5 SD of the protein, either way, in both replicates (recomputed)
[1] = compound: CC1=C(C=C(C=C1)NC(=O)C2=CC(=CC=C2)C(C)(C)C#N)NC3=CC4=C(C=C3)N=CN(C4=O)C
Outline: (§1)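 K562 cells at 2×10^6 cells/mL were treated for 30 min with 10 μM compound, and aliquots were heated for 3 min over 48°C-58°C before pooling. Extraction used PBS with 0.5% NP-40 at 4°C, and soluble protein was the supernatant after 21,000xg for 90 min, measured by TMTpro 16plex LC-MS/MS with channel sums equalised. Thermal stability values, relative to control samples and from duplicates, are log2 fold changes.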

[2] = compound: CC1=C(C=C(C=C1)NC(=O)C2=CC(=CC=C2)N(C)C)NC(=O)C3=CC=C(C=C3)O
Outline: as §1

[3] = compound: CCCS(=O)(=O)Nc1ccc(F)c(C(=O)c2c[nH]c3ncc(-c4ccc(Cl)cc4)cc23)c1F [vemurafenib]
Outline: as §1

[4] = compound: CCCc1cc(C)[nH]c(=O)c1CNC(=O)c1cc(-c2ccnc(N3CCN(C)CC3)c2)cc2c1cnn2C(C)C
Outline: as §1

[5] = compound: CCN(CCCOc1ccc2c(Nc3cc(CC(=O)Nc4cccc(F)c4)[nH]n3)ncnc2c1)CCOP(=O)(O)O [barasertib]
Outline: as §1

[6] = compound: CC[C@@H]1C(=O)N(C)c2cnc(Nc3ccc(C(=O)NC4CCN(C)CC4)cc3OC)nc2N1C1CCCC1
Outline: as §1

[7] = compound: CN(C)CC(=O)Nc1ccc2[nH]c(=O)c3ccccc3c2c1
Outline: as §1

[8] = compound: CN(CCOC1=CC=C(C=C1)C[C@H]2C(=O)NC(=O)S2)C3=CC=CC=N3 (racemic) [rosiglitazone]
Outline: as §1

[9] = compound: CN1C2=C(C3=C1C(=O)N(N=C3)CC4=CC(=CC=C4)N)SC(=C2)S(=O)C
Outline: as §1

[10] = compound: CC1=CC=C(C=C1)SC2=C3C=C(SC3=CN=C2)C(=O)N
Outline: as §1

[11] = compound: CC1=NC(=CC=C1)C2=C(N=C(N2)C(C)(C)C)C3=CC4=NC=CN=C4C=C3
Outline: as §1

[12] = compound: CCCCN(Cc1ccc(C(=O)NO)cc1)C(=O)Nc1ccccc1 [Nexturastat A]
Outline: as §1

[13] = compound: CCCS(=O)(=O)Nc1ccc(F)c(C(=O)c2c[nH]c3ncc(Cl)cc23)c1F
Outline: as §1

[14] = compound: CCN(CC)Cc1ccc2cc(COC(=O)Nc3ccc(C(=O)NO)cc3)ccc2c1 [givinostat]
Outline: as §1

[15] = compound: CC[C@@H]1C(=O)N(C)c2cnc(Nc3ccc(C(=O)N[C@H]4CC[C@H](N5CCN(CC6CC6)CC5)CC4)cc3OC)nc2N1C(C)C [volasertib]
Outline: as §1

[16] = compound: CC[C@H](C)N1C=C(C2=C(C=C(C=C21)C3=CN=C(C=C3)N4CCNCC4)C(=O)NCC5=C(C=C(NC5=O)C)C)C
Outline: as §1

[17] = compound: CC[C@H](C)[C@@H](C(=O)N[C@@H]([C@@H](C)O)C(=O)N[C@@H](CC(C)C)C(=O)[C@]1(CO1)C)NC(=O)[C@H]([C@@H](C)CC)N(C)C(=O)C [epoxomicin]
Outline: as §1

[18] = compound: CCn1c(C(=O)N(C2CC2)C2CC2)cc2c3c(ncn3C)c(Nc3cc(C)n(C)n3)nc21
Outline: as §1

[19] = compound: CCn1cc(-c2ccnc3[nH]c(-c4cccc(CN(C)C)c4)cc23)c(-c2ccc(NC(=O)N(C)C)cc2)n1
Outline: as §1

[20] = compound: CN1CCC(CNc2ccc3ncc(-c4cccc(OC(F)(F)F)c4)n3n2)CC1
Outline: as §1

| Target | log2 fold change [1] | log2 fold change [2] | log2 fold change [3] | log2 fold change [4] | log2 fold change [5] | log2 fold change [6] | log2 fold change [7] | log2 fold change [8] | log2 fold change [9] | log2 fold change [10] | log2 fold change [11] | log2 fold change [12] | log2 fold change [13] | log2 fold change [14] | log2 fold change [15] | log2 fold change [16] | log2 fold change [17] | log2 fold change [18] | log2 fold change [19] | log2 fold change [20] |
| --- | --- | --- | --- | --- | --- | --- | --- | --- | --- | --- | --- | --- | --- | --- | --- | --- | --- | --- | --- | --- |
| SERPINB5 (UniProt P36952) | inactive: -0.146 | inactive: 0.387 | inactive: 0.357 | inactive: 0.108 | inactive: 0.639 | inactive: 1.46 | inactive: 0.024 | inactive: 0.261 | inactive: 1.42 | – | – | – | – | – | – | – | – | – | – | – |
| SGPP1 (UniProt Q9BX95) | inactive: 0.039 | – | inactive: -0.005 | inactive: -0.306 | inactive: 0.066 | inactive: -0.023 | inactive: -0.003 | inactive: 0.035 | inactive: -0.008 | inactive: -0.085 | inactive: 0.007 | inactive: -0.124 | inactive: -0.057 | inactive: -0.149 | inactive: -0.037 | inactive: 0.092 | inactive: -0.021 | inactive: 0.019 | inactive: -0.001 | inactive: -0.22 |
| SH3PXD2B (UniProt A1X283) | inactive: -0.029 | – | inactive: -0.145 | inactive: 0.187 | inactive: 0.043 | active: -2.01 | inactive: -0.019 | – | – | – | – | inactive: -0.052 | – | active: -0.548 | – | inactive: -0.068 | inactive: 0.048 | – | inactive: 0.097 | active: -1.2 |
| SIAE (UniProt Q9HAT2) | inactive: 0.05 | inactive: 0.014 | inactive: -0.104 | – | inactive: -0.021 | – | inactive: -0.097 | inactive: 0.127 | inactive: 0.023 | inactive: -0.109 | inactive: 0 | inactive: 0.105 | inactive: -0.236 | inactive: -0.028 | inactive: -0.022 | inactive: -0.132 | inactive: -0.072 | inactive: 0.003 | inactive: 0.059 | inactive: -0.205 |
| SKAP2 (UniProt O75563) | – | inactive: -0.047 | – | inactive: -0.009 | – | – | – | – | inactive: -0.109 | inactive: -0.05 | inactive: -0.08 | – | inactive: -0.217 | inactive: -0.214 | inactive: 0.373 | – | – | inactive: 0.128 | – | – |
| SERPINA12 (UniProt Q8IW75) | inactive: -0.077 | – | inactive: 0.338 | inactive: -0.125 | – | inactive: 0.415 | inactive: 0.936 | – | inactive: 0.338 | – | – | inactive: 0.207 | – | – | – | inactive: 0.002 | inactive: 1.02 | – | – | – |
| SEMG2 (UniProt Q02383) | inactive: -0.038 | – | – | inactive: -0.097 | inactive: 0.015 | inactive: 0.043 | – | – | – | – | – | inactive: -0.062 | – | – | – | inactive: 0.15 | inactive: 0.06 | – | inactive: 0.035 | inactive: 0.058 |
| SINHCAF (UniProt Q9NP50) | inactive: -0.483 | – | – | – | – | – | – | – | – | – | inactive: -0.296 | inactive: -0.615 | – | – | – | – | inactive: 0.484 | – | – | – |
| SELENON (UniProt Q9NZV5) | inactive: 0.011 | inactive: 0.068 | inactive: 0.038 | – | – | – | inactive: -0.016 | – | – | – | – | – | – | – | – | – | – | – | – | – |
| SH2D1B (UniProt O14796) | inactive: -0.781 | inactive: 0.013 | inactive: 0.048 | inactive: -0.146 | – | inactive: -0.068 | inactive: -0.025 | – | inactive: 0.235 | inactive: -0.01 | inactive: -0.011 | inactive: 0.143 | inactive: -0.135 | inactive: -0.028 | inactive: -0.029 | inactive: 0.095 | inactive: 0.168 | – | inactive: -0.068 | inactive: -0.174 |
| SIK3 (UniProt H0Y4E8) | inactive: 0.017 | inactive: 0.18 | inactive: -0.08 | inactive: -0.026 | – | inactive: 0.032 | inactive: -0.111 | – | inactive: -0.019 | inactive: -0.062 | inactive: -0.066 | – | inactive: -0.076 | inactive: 0.098 | inactive: -0.109 | inactive: -0.02 | – | – | inactive: -0.065 | inactive: -0.071 |
| SHFL (UniProt Q9NUL5) | inactive: 0.003 | inactive: -0.02 | – | inactive: -0.015 | inactive: -0.045 | – | – | inactive: 0.015 | – | inactive: 0.03 | – | inactive: 0.151 | inactive: 0.041 | – | inactive: 0.045 | inactive: -0.008 | inactive: -0.127 | – | inactive: 0.192 | inactive: 0.242 |
